# Where “and” joins values, the source holds several entries; their conditions need not be identical. Equal values may be shown once. About 13,000 (3.2%) of roughly 400,000 compounds were called active. This list was built around the results that the source calls inconclusive (neither active nor inactive); the mix of calls is not that of the screen. Calls follow the shape of the dose curve; as a rule, active = well fitted cell-killing curve with a large enough effect; inconclusive = small, poorly fitted or top-dose-only effect, or effect the other way; inactive = flat fitted curve, though single readings scatter. Where the call is inconclusive, the potency comes from a doubtful curve fit.
# Experiment: qHTS assay for MDR1-selective chemotherapeutics: Primary screen using the drug-selected MDR subline cells KB-V1; also: nearly all actives have a fitted effect of over 60% in size
# Conditions: KB-V1 MDR cells viability, CellTiter-Glo, 72 h; activity change, negative = cytotoxicity: at 46.1 µM (top of the series)
# Summary of the method: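 Cytotoxicity toward P-gp-expressing KB-V1 cells was determined as loss of CellTiter-Glo luminescence after 72 h at 37 degrees C. Compounds were tested in quantitative HTS format across a concentration range, with curves fitted to normalized data.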
# % is scaled to controls: 0 for no effect and ±100 for the full control effect; potency is read from the fitted curve at half-maximal effect.
SMILES,Potency,"activity change, negative = cytotoxicity"
Cc1cccc(-n2nnnc2SCC(=O)NCC2(N3CCOCC3)CCCCC2)c1C,"inconclusive: 14.6 µM [cytotoxic, partial curve, poor fit]",
Cc1cccc(Cn2c(SCc3ccc(C(=O)NCc4ccccc4F)cc3)nc3cccnc32)c1,active: 14.6 µM,
Cc1cc(C)c2oc(C(=O)Nc3nc4ccc(Cl)cc4s3)cc(=O)c2c1,"inconclusive: 23.1 µM [rising, single point]",
CCOC(=O)c1cc2occc2n1CC(=O)NCCOC,"inconclusive: 0.184 µM [rising, full curve]",
CCn1cc(C(=O)NCc2ccco2)c2cc(OC)c(OC)cc2c1=O,,inactive: -11.8%
C[C@@H]1CN([C@H](C)CO)C(=O)CCCn2nncc2CO[C@@H]1CN(C)S(=O)(=O)c1ccc(-n2cccn2)cc1,,inactive: 13.3%
CCN(C(=O)c1ccc(NC(=O)Cc2ccccc2)cc1)c1ccccc1,"inconclusive: 23.1 µM [cytotoxic, single point]",
C=CC[n+]1c(-c2ccc(OC)cc2)csc1NNC(=O)Nc1ccccc1,active: 23.1 µM,
CCOCCc1nn2c(=O)cc(COC(=O)c3ccc(NC(=O)c4ccc(F)cc4)cc3)nc2s1,,inactive: 8.8%
Cc1nn(Cc2c(F)c(F)c(F)c(F)c2F)c(C)c1NC(=O)c1ccc(COc2cc(Cl)ccc2Cl)cc1,"inconclusive: 0.731 µM [cytotoxic, full curve, poor fit]",
CCOc1ccccc1N1CCN(C(=O)NCc2ccc(C)cc2)CC1,"inconclusive: 0.731 µM [cytotoxic, full curve, poor fit]",
CC(=O)NC(Nc1nc2c(s1)CCCC2)(C(F)(F)F)C(F)(F)F,,inactive: 3.41%
O=[N+]([O-])c1ccc(NN=Cc2ccc(O)cc2O)nc1,"inconclusive: 2.59 µM [cytotoxic, full curve, poor fit]",
O=C(CN1CCCCC1)NCC1(c2ccccc2)CCCC1,,inactive: -14.8%
O=C(NCc1ccc2c(c1)OCO2)c1cccnc1,"inconclusive: 29.1 µM [rising, single point]",
Cc1c(C(=O)NCc2ccc3c(c2)OCCO3)sc(=O)n1Cc1ccccc1C(F)(F)F,"inconclusive: 16.4 µM [cytotoxic, partial curve, poor fit]",
CC(=O)O[C@H]1C2OC(=O)C(C)=C2[C@@H]2OC(=O)[C@]3(CCC4OC41C)OC23 (stereo not given in full),,inactive: 26%
COc1ccc(C(=O)c2cnc(C(C)C)n2C)cc1,"inconclusive: 32.6 µM [cytotoxic, single point]",
CCCCNC(=O)C[C@@H]1C[C@@]2(C(=O)OCC)CCCC=C2N(Cc2ccccc2)C1=O,"inconclusive: 10.3 µM [cytotoxic, partial curve]",
Cc1ccc2nc(CSc3nnc(Nc4ccccc4F)s3)cc(=O)n2c1,"inconclusive: 18.4 µM [cytotoxic, single point]",
C/C(CC(=O)Nc1ccc(OCc2ccccc2)cc1)=N\NC(=O)C(=O)Nc1cccc(C)c1,"inconclusive: 18.4 µM [cytotoxic, single point]",
COc1ccc(-c2cn[nH]c2-c2ccc(OCc3ccccc3F)cc2O)cc1OC,active: 18.4 µM,
COCC1CCN(C(=O)c2ccc3oc(Cc4ccc(Cl)cc4)nc3c2)C1 (stereo not given),"inconclusive: 6.51 µM [cytotoxic, partial curve]",
COc1ccc(-c2cc(C(=O)N3CCCCCC3)no2)cc1,"inconclusive: 7.31 µM [cytotoxic, partial curve]",

SMILES,Potency,"activity change, negative = cytotoxicity"
COc1ccc2c(CNC3CCC(C)CC3)c(C(=O)O)n(Cc3ccccc3)c2c1 (stereo not given),"inconclusive: 29.1 µM [rising, single point]",
N#Cc1c(NC(=O)c2ccccc2)sc2c1CCC2,active: 4.61 µM,
Cc1cccc(Cn2nnc3c2C(=O)c2ccccc2C3=O)c1,active: 6.31 µM,
COC(=O)c1nc(N)sc1-c1ccc(OC)cc1,"inconclusive: 32.6 µM [cytotoxic, single point]",
CN1CCN(C(=O)c2ccc(-c3ccc(Br)cc3)o2)CC1,"inconclusive: 18.4 µM [cytotoxic, partial curve, poor fit]",
Cc1cccc(Cn2nnc3c(=O)[nH]c(C4CCCN(C(=O)c5ccc(C(C)(C)C)cc5)C4)nc32)c1 (stereo not given),,inactive: -7.66%
COc1ccc(N(CC(=O)N/N=C/c2ccc(F)cc2)S(=O)(=O)c2ccccc2)cc1,"inconclusive: 16.4 µM [cytotoxic, single point]",
CCCC(=O)Nc1sc2c(c1C(=O)OC)C(C(=O)OC)CC2 (stereo not given),"inconclusive: 29.1 µM [cytotoxic, single point]",
Cc1ccc(NC(=O)Cn2c(=O)n(CCc3ccccc3)c(=O)c3sc4ccccc4c32)cc1C,"inconclusive: 2.91 µM [cytotoxic, full curve, poor fit]",
CC(Oc1cc(Cl)ccc1Cl)C(=O)N/N=C\c1ccnn1C (stereo not given),active: 18.4 µM,
CC1CN(C(=O)c2cc(-c3ccc(Cl)s3)nc3ccccc23)CC(C)O1 (stereo not given),,inactive: 0.902%
Cc1ccc(NC(=S)N2CCN(C)CC2)c(C)c1,,inactive: 4.34%
CN(C(=O)Cn1nc(C(=O)O)c2ccccc2c1=O)C1CCCCC1,,inactive: 0%
c1ccc(SCCN2CCN(c3ccccc3)CC2)cc1,,inactive: -14.8%
CC1CC(C)CN(C(=O)CNS(=O)(=O)c2cccs2)C1 (stereo not given),"inconclusive: 23.1 µM [cytotoxic, partial curve, poor fit]",
COCCN1CC(C(=O)NCc2ncccc2C)CCC1=O (stereo not given),"inconclusive: 18.4 µM [rising, partial curve, poor fit]",
Cc1ccc(S(=O)(=O)NCCC(=O)OCC(=O)Nc2cccc(Cl)c2)cc1,"inconclusive: 29.1 µM [rising, single point]",
COc1ccc(NC(=O)c2ccc(CN3CCc4ccccc4C3)cc2)cc1OC,active: 8.2 µM,
COc1ccccc1CNS(=O)(=O)c1cc(-c2cc(C)no2)ccc1C,"inconclusive: 16.4 µM [cytotoxic, single point]",
CC1CCCN(CCCNC(=O)CN2C(=O)COc3ccc(S(=O)(=O)N4CCOCC4)cc32)C1 (stereo not given),"inconclusive: 20.6 µM [rising, single point]",
O=C(NCc1ccccc1F)c1cccc(NC(=O)N2CCSc3ncccc32)c1,,inactive: -2.13%
CCc1nc(-c2ccc(OC)c(OC)c2)cc2cc(OC)c(OC)cc12,"inconclusive: 8.2 µM [cytotoxic, partial curve, poor fit]",
CN(C)C(CNc1ccc(C(F)(F)F)cc1[N+](=O)[O-])c1ccccc1 (stereo not given),"inconclusive: 14.6 µM [cytotoxic, partial curve]",
Cc1ccc(-c2cc(NC(=O)COc3c(C)cc(C)cc3C)on2)cc1,"inconclusive: 16.4 µM [rising, partial curve]",

# Look-ups from the results shown.
# Potency with `COCCN1CC(C(=O)NCc2ncccc2C)CCC1=O` (stereo not given) reads inconclusive: 18.4 µM [rising, partial curve, poor fit]
# Potency with `CCCC(=O)Nc1sc2c(c1C(=O)OC)C(C(=O)OC)CC2` (stereo not given) reads inconclusive: 29.1 µM [cytotoxic, single point]

# (list continues)

SMILES,Potency,"activity change, negative = cytotoxicity"
O=C(CSc1nc(Nc2ccccc2)nc(N2CCOCC2)n1)N1CCc2ccccc21,"inconclusive: 13 µM [cytotoxic, partial curve]",
Cc1ccc2cc(CN(CCc3ccccc3)C(=S)NCCCN(C)C)c(=O)[nH]c2c1,,inactive: -1.22%
COc1ccc(C2CC(=O)c3cc(-c4nc(-c5cccc([N+](=O)[O-])c5)cs4)c(=O)n(-c4ccccc4C)c3C2)cc1 (stereo not given),"inconclusive: 18.4 µM [rising, single point]",
O=C(Cc1cccs1)Nc1ccccc1F,,inactive: 4.34%
CC(=O)N(CCOc1ccccc1)CCOc1ccccc1,"inconclusive: 32.6 µM [cytotoxic, single point]",
CCOC(=O)N1CCN(C(=O)c2ccc3nc(SCc4ccc(F)cc4)n(C)c3c2)CC1,active: 9.2 µM,
O=C(NCCc1c[nH]c2ccccc12)c1ccco1,"inconclusive: 20.6 µM [cytotoxic, single point]",
Cn1ccc2c(-c3cccc4ccccc34)cc3c(c21)C1CCC3O1 (stereo not given),"inconclusive: 29.1 µM [cytotoxic, single point]",
O=C(c1ccc(-c2ccccc2)cc1)N1CCN(c2ccc3c(c2)C2CC3CCN2C(=O)OCc2ccccc2)CC1 (stereo not given),,inactive: 16.3%
CCCCOC(=O)Nc1nc2ccc([N+](=O)[O-])cc2s1,,inactive: 10.7%
O=C(Cc1ccc(F)cc1)Nc1cccc(-c2cn3c(n2)SCC3)c1,active: 18.4 µM,
COc1ccc(C(CNC(=O)C(C)Oc2ccc(Br)cc2)N2CCOCC2)cc1 (stereo not given),"inconclusive: 7.31 µM [cytotoxic, partial curve]",
CCCCC(c1nnnn1C(C)C)N1CCN(C(=O)c2ccco2)CC1 (stereo not given),"inconclusive: 5.8 µM [cytotoxic, partial curve]",
Cn1c(=O)c2c(nc(NC(Cc3ccccc3)C(=O)O)n2Cc2ccccc2)n(C)c1=O (stereo not given),,inactive: -31.3%
CC1(C)CC(=O)C=C(c2ccc3ccccc3c2)C1,,inconclusive: 31.2%
CS(=O)(=O)N1N=C(c2ccco2)CC1c1ccc(Cl)cc1 (stereo not given),active: 16.4 µM,
COc1cc(C2C3=C(COC3=O)Oc3cc4c(cc32)OCO4)cc(OC)c1OC (stereo not given),"inconclusive: 1.64 µM [cytotoxic, partial curve, poor fit] and active: 103 nM",
C=CCn1c(SCn2nnc3ccccc3c2=O)nnc1-c1ccc(Br)cc1,"inconclusive: 14.6 µM [cytotoxic, partial curve]",
c1ccc2nc(-c3cc4ccccc4s3)ccc2c1,,inactive: -1.83%
O=C(CN1C(=O)S/C(=C/C=C/c2ccccc2)C1=O)Nc1ccc(C(=O)O)cc1,,inactive: 29.7%
Cc1ccc(S(=O)(=O)Oc2ccc(C(c3c(C)[nH][nH]c3=O)c3c(C)[nH][nH]c3=O)cc2)cc1,"inconclusive: 28.2 µM [rising, partial curve, poor fit]",
CC1CCCCC1NC(=O)COC(=O)c1ccc2c(c1)NC(=O)CS2 (stereo not given),,inactive: -2.88%

# — PubChem BioAssay AID1347076 (National Center for Advancing Translational Sciences (NCATS), 2019)
